Assay results from publication PMC12061849.
These are yes or no findings as the source states them, for the method shown. In cells and extracts the contact can be indirect. Some results given as binding are weak or reduced against the parent protein; the word gives no strength.

Chains of the proteins cited; added tags and fusions are not shown.
UniProt Q92769: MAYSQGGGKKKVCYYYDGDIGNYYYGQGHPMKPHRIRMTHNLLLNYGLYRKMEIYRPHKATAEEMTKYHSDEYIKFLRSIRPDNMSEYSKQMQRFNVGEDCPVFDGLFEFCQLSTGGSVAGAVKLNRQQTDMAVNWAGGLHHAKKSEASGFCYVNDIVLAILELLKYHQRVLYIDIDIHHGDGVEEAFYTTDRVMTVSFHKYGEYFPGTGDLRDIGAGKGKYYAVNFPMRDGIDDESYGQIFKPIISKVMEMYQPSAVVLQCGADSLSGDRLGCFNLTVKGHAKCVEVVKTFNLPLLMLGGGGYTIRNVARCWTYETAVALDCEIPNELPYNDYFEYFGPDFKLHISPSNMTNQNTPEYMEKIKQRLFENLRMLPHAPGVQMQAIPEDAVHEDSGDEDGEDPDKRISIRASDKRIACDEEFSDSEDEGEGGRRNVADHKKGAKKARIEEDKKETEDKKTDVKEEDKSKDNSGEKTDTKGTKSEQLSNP
UniProt Q09472: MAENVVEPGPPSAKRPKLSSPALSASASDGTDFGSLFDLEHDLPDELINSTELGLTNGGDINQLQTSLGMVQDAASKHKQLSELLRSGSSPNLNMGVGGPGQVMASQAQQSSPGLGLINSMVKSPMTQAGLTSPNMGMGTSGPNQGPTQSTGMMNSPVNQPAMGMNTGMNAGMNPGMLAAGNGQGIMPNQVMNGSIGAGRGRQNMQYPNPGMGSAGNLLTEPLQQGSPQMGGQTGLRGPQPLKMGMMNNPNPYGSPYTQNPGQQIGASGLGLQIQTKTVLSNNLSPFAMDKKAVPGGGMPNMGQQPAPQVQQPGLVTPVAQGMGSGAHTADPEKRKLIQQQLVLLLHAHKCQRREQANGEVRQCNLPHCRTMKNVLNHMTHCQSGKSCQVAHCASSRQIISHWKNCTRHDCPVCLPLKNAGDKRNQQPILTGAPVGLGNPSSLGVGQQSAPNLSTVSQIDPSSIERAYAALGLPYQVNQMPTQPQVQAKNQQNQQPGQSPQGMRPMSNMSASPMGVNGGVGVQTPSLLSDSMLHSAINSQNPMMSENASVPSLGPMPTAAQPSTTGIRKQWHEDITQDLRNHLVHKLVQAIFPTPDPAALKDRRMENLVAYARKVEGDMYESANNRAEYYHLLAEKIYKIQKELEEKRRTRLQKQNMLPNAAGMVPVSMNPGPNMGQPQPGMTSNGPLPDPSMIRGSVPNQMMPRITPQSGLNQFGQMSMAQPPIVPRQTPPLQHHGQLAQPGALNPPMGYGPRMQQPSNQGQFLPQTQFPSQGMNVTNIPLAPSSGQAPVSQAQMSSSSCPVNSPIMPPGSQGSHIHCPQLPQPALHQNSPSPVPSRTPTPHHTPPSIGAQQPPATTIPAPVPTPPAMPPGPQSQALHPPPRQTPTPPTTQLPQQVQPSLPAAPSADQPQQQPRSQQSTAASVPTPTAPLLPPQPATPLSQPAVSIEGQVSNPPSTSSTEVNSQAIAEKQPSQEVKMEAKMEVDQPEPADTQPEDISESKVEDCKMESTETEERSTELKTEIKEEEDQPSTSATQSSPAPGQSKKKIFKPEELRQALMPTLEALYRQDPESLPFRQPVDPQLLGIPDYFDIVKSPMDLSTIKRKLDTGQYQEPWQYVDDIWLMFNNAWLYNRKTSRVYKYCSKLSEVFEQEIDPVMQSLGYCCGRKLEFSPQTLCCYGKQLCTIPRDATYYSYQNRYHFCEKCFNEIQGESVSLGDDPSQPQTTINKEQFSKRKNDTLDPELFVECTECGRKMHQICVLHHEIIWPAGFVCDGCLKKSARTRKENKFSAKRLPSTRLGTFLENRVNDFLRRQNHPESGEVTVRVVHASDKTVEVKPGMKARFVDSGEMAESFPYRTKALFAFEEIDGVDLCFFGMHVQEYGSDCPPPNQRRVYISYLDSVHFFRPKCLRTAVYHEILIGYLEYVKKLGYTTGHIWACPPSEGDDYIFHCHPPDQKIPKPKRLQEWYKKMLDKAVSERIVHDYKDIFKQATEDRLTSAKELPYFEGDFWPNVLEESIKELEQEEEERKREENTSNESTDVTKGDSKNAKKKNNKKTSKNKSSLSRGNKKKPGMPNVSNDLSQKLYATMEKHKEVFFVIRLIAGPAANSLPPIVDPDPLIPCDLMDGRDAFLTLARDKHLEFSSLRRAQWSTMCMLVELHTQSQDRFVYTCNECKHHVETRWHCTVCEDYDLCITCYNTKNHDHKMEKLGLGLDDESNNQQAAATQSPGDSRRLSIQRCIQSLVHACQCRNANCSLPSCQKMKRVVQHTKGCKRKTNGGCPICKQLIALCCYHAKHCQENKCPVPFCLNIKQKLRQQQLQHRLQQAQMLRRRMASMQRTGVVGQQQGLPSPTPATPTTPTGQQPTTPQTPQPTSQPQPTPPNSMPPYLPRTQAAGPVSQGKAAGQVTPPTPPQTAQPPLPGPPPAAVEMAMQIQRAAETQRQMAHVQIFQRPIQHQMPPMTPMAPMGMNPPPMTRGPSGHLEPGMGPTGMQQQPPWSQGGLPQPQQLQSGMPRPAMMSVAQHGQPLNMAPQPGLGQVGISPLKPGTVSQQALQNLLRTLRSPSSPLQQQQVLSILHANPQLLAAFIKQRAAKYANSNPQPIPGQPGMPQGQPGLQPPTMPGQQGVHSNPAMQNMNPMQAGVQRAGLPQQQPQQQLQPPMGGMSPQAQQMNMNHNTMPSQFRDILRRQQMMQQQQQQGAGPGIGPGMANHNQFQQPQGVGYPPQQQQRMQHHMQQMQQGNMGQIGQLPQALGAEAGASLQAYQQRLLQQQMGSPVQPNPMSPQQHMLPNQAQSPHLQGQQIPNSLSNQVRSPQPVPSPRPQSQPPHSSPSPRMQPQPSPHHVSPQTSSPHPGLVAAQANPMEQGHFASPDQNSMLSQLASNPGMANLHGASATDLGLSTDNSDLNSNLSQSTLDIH
UniProt P35222: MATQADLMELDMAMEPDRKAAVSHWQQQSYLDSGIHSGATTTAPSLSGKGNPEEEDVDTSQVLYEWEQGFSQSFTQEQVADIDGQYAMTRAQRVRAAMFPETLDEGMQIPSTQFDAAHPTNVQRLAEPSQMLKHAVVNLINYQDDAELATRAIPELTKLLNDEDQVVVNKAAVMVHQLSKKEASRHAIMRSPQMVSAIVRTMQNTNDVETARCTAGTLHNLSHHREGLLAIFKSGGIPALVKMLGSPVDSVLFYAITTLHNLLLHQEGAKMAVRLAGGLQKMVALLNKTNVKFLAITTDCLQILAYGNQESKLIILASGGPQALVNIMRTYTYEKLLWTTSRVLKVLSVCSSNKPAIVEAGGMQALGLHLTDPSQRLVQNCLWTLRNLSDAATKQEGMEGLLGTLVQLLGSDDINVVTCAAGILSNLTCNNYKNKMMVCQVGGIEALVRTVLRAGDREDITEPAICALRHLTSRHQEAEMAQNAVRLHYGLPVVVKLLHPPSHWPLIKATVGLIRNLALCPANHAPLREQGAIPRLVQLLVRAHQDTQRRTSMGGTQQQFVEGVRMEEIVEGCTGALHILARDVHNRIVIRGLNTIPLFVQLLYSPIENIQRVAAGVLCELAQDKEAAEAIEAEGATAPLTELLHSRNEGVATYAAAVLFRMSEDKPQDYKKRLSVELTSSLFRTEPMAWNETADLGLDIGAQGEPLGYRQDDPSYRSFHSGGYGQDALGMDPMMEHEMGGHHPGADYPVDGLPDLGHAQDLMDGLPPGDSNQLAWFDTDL
UniProt P25490: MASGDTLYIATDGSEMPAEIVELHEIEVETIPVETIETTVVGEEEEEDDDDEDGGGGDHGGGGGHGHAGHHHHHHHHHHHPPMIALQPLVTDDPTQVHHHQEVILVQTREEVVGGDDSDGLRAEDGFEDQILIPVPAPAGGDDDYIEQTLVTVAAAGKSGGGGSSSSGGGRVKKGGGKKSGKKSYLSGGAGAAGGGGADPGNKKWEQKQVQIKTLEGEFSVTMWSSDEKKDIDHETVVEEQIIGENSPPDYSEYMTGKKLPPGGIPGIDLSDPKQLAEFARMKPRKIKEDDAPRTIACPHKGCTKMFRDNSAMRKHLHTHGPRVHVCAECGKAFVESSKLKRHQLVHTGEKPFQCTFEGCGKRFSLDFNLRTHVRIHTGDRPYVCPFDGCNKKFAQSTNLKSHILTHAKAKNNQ

Assays:
Assay in all cases: co-IP; lysates of LNCAP and PC3 cells; immunoprecipitation with anti-p300, anti-HDAC2, anti-β-catenin, anti-FBXW2 or anti-IgG for 1 h, protein A/G agarose beads, Western blot
[1] = molecular target: histone deacetylase 2 (human (endogenous in LNCAP and PC3)) (UniProt Q92769)
[2] = molecular target: p300 (human (endogenous in LNCAP and PC3)) (UniProt Q09472)
[3] = molecular target: β‐catenin (human (endogenous in LNCAP and PC3)) (UniProt P35222)

Row | binding [1] | binding [2] | binding [3] | Molecule
1 | binds | binds |  | YY1 (from UniProt P25490 1-414)
2 |  |  | binds | F‐box and WD repeat domain containing 2 (protein, UniProt Q9UKT8 1-454) MERKDFETWLDNISVTFLSLTDLQKNETLDHLISLSGAVQLRHLSNNLETLLKRDFLKLLPLELSFYLLKWLDPQTLLTCCLVSKQWNKVISACTEVWQTACKNLGWQIDDSVQDALHWKKVYLKAILRMKQLEDHEAFETSSLIGHSARVYALYYKDGLLCTGSDDLSAKLWDVSTGQCVYGIQTHTCAAVKFDEQKLVTGSFDNTVACWEWSSGARTQHFRGHTGAVFSVDYNDELDILVSGSADFTVKVWALSAGTCLNTLTGHTEWVTKVVLQKCKVKSLLHSPGDYILLSADKYEIKIWPIGREINCKCLKTLSVSEDRSICLQPRLHFDGKYIVCSSALGLYQWDFASYDILRVIKTPEIANLALLGFGDIFALLFDNRYLYIMDLRTESLISRWPLPEYRKSKRGSSFLAGEASWLNGLDGHNDTGLVFATSMPDHSIHLVLWKEHG
